Experimental data published in publication PMC10879500.
These are yes or no findings as the source states them, for the method shown. Binding seen in cells or lysates may run through a third protein. Some results given as binding are weak or reduced against the parent protein; the word gives no strength. For some assays here: Tags and fused reporters may be left off the sequences shown.

Amino acid sequences for entries named in this document (tags omitted).
UniProt Q96CW1: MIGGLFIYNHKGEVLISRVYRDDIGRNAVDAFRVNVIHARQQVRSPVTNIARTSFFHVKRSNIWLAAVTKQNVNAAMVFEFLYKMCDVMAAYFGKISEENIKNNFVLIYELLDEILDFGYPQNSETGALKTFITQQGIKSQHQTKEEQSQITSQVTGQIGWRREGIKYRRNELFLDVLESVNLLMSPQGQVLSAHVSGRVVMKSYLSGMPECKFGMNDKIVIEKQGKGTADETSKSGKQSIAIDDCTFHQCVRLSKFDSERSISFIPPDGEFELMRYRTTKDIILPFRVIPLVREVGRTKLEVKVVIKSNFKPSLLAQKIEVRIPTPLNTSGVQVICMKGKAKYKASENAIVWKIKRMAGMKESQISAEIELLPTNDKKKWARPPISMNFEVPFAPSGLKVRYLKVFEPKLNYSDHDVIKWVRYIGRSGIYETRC

How the values were obtained:
[1] = target: HA tagged-AP2m (in HEK293) (UniProt Q96CW1); test: co-IP; HEK293 cell lysates expressing AP2m-HA and FLAG-praja2; immunoprecipitation with anti-HA antibody or control IgG; lysis in 0.5% NP40 buffer (50 mM Tris-HCl pH 7.4, 0.15 M NaCl, 100 mM EDTA)
AP2m-HA (in HeLa) = AP2m-HA (in HeLa) (UniProt Q96CW1); test: co-IP; HeLa cells transfected with AP2m-HA, starved overnight, treated with EGF for the indicated time points; lysates immunoprecipitated with anti-HA antibody, blotted with anti-praja2 (endogenous praja2) and anti-HA

B1: FLAG tagged-praja2 (wild type) (enzyme, UniProt O43164 1-708)
chain: MSQYTEKEPAAMDQESGKAVWPKPAGGYQTITGRRYGRRHAYVSFKPCMTRHERSLGRAGDDYEVLELDDVPKENSSGSSPLDQVDSSLPSEPIFEKSETEIPTCGSALNQTTESSQSFVAVHHSEEGRDTLGSSTNLHNHSEGEYIPGACSASSVQNGIALVHTDSYDPDGKHGEDNDHLQLSAEVVEGSRYQESLGNTVFELENREAEAYTGLSPPVPSFNCEVRDEFEELDSVPLVKSSAGDTEFVHQNSQEIQRSSQDEMVSTKQQNNTSQERQTEHSPEDAACGPGHICSEQNTNDREKNHGSSPEQVVRPKVRKLISSSQVDQETGFNRHEAKQRSVQRWREALEVEESGSDDLLIKCEEYDGEHDCMFLDPPYSRVITQRETENNQMTSESGATAGRQEVDNTFWNGCGDYYQLYDKDEDSSECSDGEWSASLPHRFSGTEKDQSSSDESWETLPGKDENEPELQSDSSGPEEENQELSLQEGEQTSLEEGEIPWLQYNEVNESSSDEGNEPANEFAQPAFMLDGNNNLEDDSSVSEDLDVDWSLFDGFADGLGVAEAISYVDPQFLTYMALEERLAQAMETALAHLESLAVDVEVANPPASKESIDGLPETLVLEDHTAIGQEQCCPICCSEYIKDDIATELPCHHFFHKPCVSIWLQKSGTCPVCRRHFPPAVIEASAAPSSEPDPDAPPSNDSIAEAP
[1]
  binding: binds

B2: praja2, endogenous in HeLa cells (enzyme, UniProt O43164 1-708)
chain: MSQYTEKEPAAMDQESGKAVWPKPAGGYQTITGRRYGRRHAYVSFKPCMTRHERSLGRAGDDYEVLELDDVPKENSSGSSPLDQVDSSLPSEPIFEKSETEIPTCGSALNQTTESSQSFVAVHHSEEGRDTLGSSTNLHNHSEGEYIPGACSASSVQNGIALVHTDSYDPDGKHGEDNDHLQLSAEVVEGSRYQESLGNTVFELENREAEAYTGLSPPVPSFNCEVRDEFEELDSVPLVKSSAGDTEFVHQNSQEIQRSSQDEMVSTKQQNNTSQERQTEHSPEDAACGPGHICSEQNTNDREKNHGSSPEQVVRPKVRKLISSSQVDQETGFNRHEAKQRSVQRWREALEVEESGSDDLLIKCEEYDGEHDCMFLDPPYSRVITQRETENNQMTSESGATAGRQEVDNTFWNGCGDYYQLYDKDEDSSECSDGEWSASLPHRFSGTEKDQSSSDESWETLPGKDENEPELQSDSSGPEEENQELSLQEGEQTSLEEGEIPWLQYNEVNESSSDEGNEPANEFAQPAFMLDGNNNLEDDSSVSEDLDVDWSLFDGFADGLGVAEAISYVDPQFLTYMALEERLAQAMETALAHLESLAVDVEVANPPASKESIDGLPETLVLEDHTAIGQEQCCPICCSEYIKDDIATELPCHHFFHKPCVSIWLQKSGTCPVCRRHFPPAVIEASAAPSSEPDPDAPPSNDSIAEAP
AP2m-HA (in HeLa)
  binding: binds
